{"sequences": {"note": "By UniProt entry, the sequences of proteins in these tests, tags left out.", "UniProt P09471, whole entry, looked up": "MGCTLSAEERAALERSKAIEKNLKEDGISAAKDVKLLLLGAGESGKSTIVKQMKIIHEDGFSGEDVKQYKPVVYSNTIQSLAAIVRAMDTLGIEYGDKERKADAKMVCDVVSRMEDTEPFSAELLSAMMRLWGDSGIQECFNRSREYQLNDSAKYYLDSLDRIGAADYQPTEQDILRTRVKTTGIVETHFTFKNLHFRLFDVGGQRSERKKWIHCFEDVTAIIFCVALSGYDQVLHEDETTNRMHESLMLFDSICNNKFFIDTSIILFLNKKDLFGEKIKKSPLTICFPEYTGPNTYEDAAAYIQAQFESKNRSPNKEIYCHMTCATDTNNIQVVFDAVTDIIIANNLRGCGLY"}, "source": "PubChem BioAssay AID1439", "about": "(NMMLSC, 2008)", "note": "Among all 220,000 compounds or so, about 770 (0.35%) were called active. This list was built around the results that the source calls inconclusive (neither active nor inactive); the mix of calls is not that of the screen. Rule as the data show it: active = binding response below about 49% or above about 150%; inconclusive = no clear call, values can overlap the other calls; inactive = in between."}
{"molecular_target": "Guanine nucleotide-binding protein G(o) subunit alpha (Homo sapiens) (UniProt P09471)", "assay": "RGS7-Galphao binding modulators, primary screen, biochemical, multiplexed bead flow cytometry (AID 1439);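 also: fluorescent Galphao held in activated GDP-AlF4 state binding bead-coupled RGS7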", "conditions": "at 10 µM, actives lie on both sides"}
{"compound": "Cc1nc(/C(N)=N/OC(=O)c2cccc(Cl)c2)c(C(F)(F)F)o1", "binding response (% of control)": "inconclusive: 173%"}
{"compound": "O=c1c2sccc2[nH]c(=S)n1-c1ccccc1", "binding response (% of control)": "inconclusive: 103%"}
{"compound": "O=C(NNc1ccccc1)/C(=C\\c1cccnc1)NC(=O)c1ccccc1", "binding response (% of control)": "inconclusive: 46.2%"}
{"compound": "Cc1cc(NC(=O)/C=C\\C(=O)O)c([N+](=O)[O-])cc1C", "binding response (% of control)": "inconclusive: 109%"}
{"compound": "O=C(COc1ccccc1)N1CCN=C1SCc1ccc(F)cc1", "binding response (% of control)": "inconclusive: 80.2%"}
{"compound": "Cc1ccc(/C=C/C(=O)N(Cc2cccs2)C2CCS(=O)(=O)C2)cc1", "note": "(stereo not drawn)", "binding response (% of control)": "inconclusive: 87.7%"}
{"compound": "CCOc1ncccc1C(=O)OCC(=O)NC(=O)NC(C)C", "binding response (% of control)": "inconclusive: 106%"}
{"compound": "NC(N)=NC(N)=Nc1ccc(O)cc1", "binding response (% of control)": "inconclusive: 146%"}
{"compound": "CCCCN1/C(=C/c2ccc3ccccc3[n+]2CC)Sc2ccccc21", "binding response (% of control)": "inactive: 106%"}
{"compound": "Cc1cc(C)c(NS(=O)(=O)c2ccc(Cl)c(C(=O)O)c2)c(C)c1", "binding response (% of control)": "inactive: 102%"}
{"compound": "CN(C(=O)CSc1nnc(C(F)(F)F)n1N)C1CCS(=O)(=O)C1", "note": "(stereo not drawn)", "binding response (% of control)": "inconclusive: 75.6%"}
{"compound": "Cc1cc(-c2nnc3n2N=C(c2ccc(F)cc2)CS3)n[nH]1", "binding response (% of control)": "inconclusive: 103%"}
{"compound": "COc1cc(/C=C2\\SC(=Nc3c(C)n(C)n(-c4ccccc4)c3=O)NC2=O)ccc1O", "binding response (% of control)": "inactive: 106%"}
{"compound": "COCC(=O)Nc1cc(Cl)ccc1C(F)(F)F", "binding response (% of control)": "inactive: 95.9%"}
{"compound": "CCN(CC)CCC(c1cc(OC)c(OC)c(OC)c1)c1c(OC)cc(OC)c2c(C)cc(=O)oc12", "note": "(stereo not drawn)", "binding response (% of control)": "inconclusive: 109%"}
{"compound": "O=C(COC(=O)c1ccc2c(c1)S(=O)(=O)N=C1CCCCCN12)NCc1cccs1", "binding response (% of control)": "inconclusive: 87.3%"}
{"compound": "O=S(=O)(NCc1csc(-c2cccs2)n1)c1ccccc1", "binding response (% of control)": "inconclusive: 55.6%"}
{"compound": "CC1CCc2c(cnc3ncnn23)C1", "note": "(stereo not drawn)", "binding response (% of control)": "inconclusive: 94.2%"}
{"compound": "Nc1ccccc1S(=O)(=O)C(F)F", "binding response (% of control)": "inconclusive: 92.6%"}
{"compound": "C=CCNC(=S)/N=c1/ccccn1CCC", "binding response (% of control)": "inconclusive: 85.2%"}
{"compound": "COc1cc2c(c(OC)c1OC)-c1c(cc3c(c1O)OCO3)C[C@@H](C)[C@@H](C)C2", "binding response (% of control)": "inconclusive: 97.2%"}
{"compound": "Cn1c(=O)c2c(nc(Oc3ccccc3)n2C)n(C)c1=O", "binding response (% of control)": "inconclusive: 97.1%"}
{"compound": "Cc1c(CCOC(=O)c2ccc(N3CCOCC3)c([N+](=O)[O-])c2)sc[n+]1CC#N", "binding response (% of control)": "inconclusive: 79.8%"}
{"compound": "CNC(=S)N1N=C(c2ccc(OC)cc2)CC1c1ccccc1Cl", "note": "(stereo not drawn)", "binding response (% of control)": "inconclusive: 95.3%"}
{"compound": "COc1cccc(-c2n[nH]c(=S)n2Cc2ccco2)c1", "binding response (% of control)": "inconclusive: 84.7%"}
{"compound": "NC(N)=NC(N)=Nc1ccc(SC(F)(F)F)cc1", "binding response (% of control)": "inactive: 96.7%"}
{"compound": "CCOC(=O)N1CCN(S(=O)(=O)c2cc([N+](=O)[O-])ccc2C)CC1", "binding response (% of control)": "inconclusive: 121%"}
{"compound": "CC(=O)c1ccc(N2CCc3ccccc3C2)c([N+](=O)[O-])c1", "binding response (% of control)": "inconclusive: 194%"}
{"compound": "CCCCN(CC)Cc1c(O)ccc2c(-c3ccccc3)cc(=O)oc12", "binding response (% of control)": "inconclusive: 95.3%"}
{"compound": "CC(C)CC1(C)NC(=O)N(Cc2cc([N+](=O)[O-])cc3c2OCOC3)C1=O", "note": "(stereo not drawn)", "binding response (% of control)": "inconclusive: 88.5%"}
{"compound": "CNC(=O)C1=C(C)NC(=S)NC1c1cccs1", "note": "(stereo not drawn)", "binding response (% of control)": "inconclusive: 109%"}
{"compound": "CC(C)(C)c1cc(C(=O)N/N=C/c2ccc([N+](=O)[O-])s2)n[nH]1", "binding response (% of control)": "inconclusive: 668%"}
{"compound": "CC1CCc2c(C(=O)Nc3ccc(N4CCOCC4)cc3)csc2C1", "note": "(stereo not drawn)", "binding response (% of control)": "inactive: 97.1%"}
{"compound": "Cc1cc(C(=O)N2CCC(C(=O)O)CC2)c(C(F)(F)F)o1", "binding response (% of control)": "inconclusive: 108%"}
{"compound": "Cc1cccc(CSc2nc3c(c(=O)[nH]2)CCC3)c1", "binding response (% of control)": "inconclusive: 97.9%"}
{"compound": "O=C(Nc1ccc(S(=O)(=O)Nc2nccs2)cc1)c1ccc(N2C(=O)c3ccccc3C2=O)cc1", "binding response (% of control)": "inconclusive: 60.3%"}
{"compound": "CCOC(=O)c1ccc(NC(=S)Nc2ccc3[nH]c(=O)[nH]c3c2)cc1", "binding response (% of control)": "inconclusive: -129%"}
{"compound": "COc1ccc(-c2cccc(C3CC=CC4C3C(=O)N(Cc3ccccc3)C4c3ccc(OC)c(Cl)c3)c2)cc1", "note": "(stereo not drawn)", "binding response (% of control)": "inconclusive: 82.7%"}
{"compound": "CC(C)(C)c1ccc(C(=O)N2CCN(CCNC(=O)C(=O)NCc3ccccc3)CC2)cc1", "binding response (% of control)": "inactive: 98.3%"}
{"compound": "CC(=O)Nc1ccc(-n2nnnc2SCC(=O)Nc2cccc(NC(=O)c3ccco3)c2)cc1", "binding response (% of control)": "inconclusive: 89.8%"}
{"compound": "O=c1[nH]cc(S(=O)(=O)c2ccccc2)[nH]1", "binding response (% of control)": "inactive: 99.4%"}
{"compound": "CCOC(=O)c1csc(COc2ccccc2Cl)n1", "binding response (% of control)": "inconclusive: 112%"}
{"compound": "O=C(O)c1cc(S(=O)(=O)N2CCOCC2)ccc1N1CCOCC1", "binding response (% of control)": "inactive: 101%"}
{"compound": "CN(Cc1ccccc1)C(=S)NC(=O)c1ccccc1", "binding response (% of control)": "inconclusive: 86.6%"}
{"compound": "COc1ccc(/C=C/C(=O)O)cc1S(=O)(=O)Nc1ccc2c(c1)OCO2", "binding response (% of control)": "inconclusive: 116%"}
{"compound": "CCOc1cc(C(=O)Nc2ncn[nH]2)cc(OCC)c1OCC", "binding response (% of control)": "inconclusive: 89.7%"}
{"compound": "O=c1cccccc1NN=C1CCCCC1", "binding response (% of control)": "inconclusive: 92.4%"}
{"compound": "Cc1ccc(C2=NOC3(CC(=O)N(c4ccccc4)C3=O)C2)cc1", "note": "(stereo not drawn)", "binding response (% of control)": "inconclusive: 28.1%"}
{"compound": "COc1ccc(Cl)cc1NC(=O)CN1C(=O)CC(C)S(=O)(=O)c2ccccc21", "note": "(stereo not drawn)", "binding response (% of control)": "inconclusive: 120%"}
{"compound": "c1coc(-c2ccnc(-n3cccc3)n2)c1", "binding response (% of control)": "inconclusive: 84.6%"}
{"compound": "Cc1ccc(C(=O)N2CCCC2)cc1S(=O)(=O)Nc1cccc(C)c1C", "binding response (% of control)": "inactive: 93.7%"}
{"compound": "CCOc1c(Nc2ccccc2O)c(=O)c1=O", "binding response (% of control)": "inconclusive: 200%"}
{"compound": "Cc1cc(=O)oc(C)c1C(=O)Nc1ccccc1F", "binding response (% of control)": "inconclusive: 125%"}
{"compound": "COc1ccc(C2C(C(=O)c3ccccc3)N3c4ccccc4C=CC3C2[N+](=O)[O-])cc1", "note": "(stereo not drawn)", "binding response (% of control)": "inactive: 96.8%"}
{"compound": "CC(OC(=O)c1cccn1C)C(=O)Nc1ccc2c(c1)OCO2", "note": "(stereo not drawn)", "binding response (% of control)": "inactive: 102%"}
{"compound": "CCOC(=O)N/N=C/c1cn(Cc2ccc(F)cc2)c2ccccc12", "binding response (% of control)": "inconclusive: 125%"}
{"compound": "CCN(c1ccc(NC(=O)COC(=O)c2ccc(C)s2)cc1)C(C)C", "binding response (% of control)": "inconclusive: 99.6%"}
{"compound": "Cc1cc(CNC(=O)c2ccc(C)c([N+](=O)[O-])c2)c2ccccc2n1", "binding response (% of control)": "inconclusive: 121%"}
